Assay results as given in paper PMC6829252.
These are yes or no findings as the source states them, for the method shown. A result given as binding can be weak or reduced; the word gives no strength.

Target: XopAI-ΔN70 (Xanthomonas axonopodis pv. citri strain XW19)
Test: other fluorescence titration; intrinsic Trp fluorescence; 5 μM XopAI-dN70 incubated with various concentrations of ligand at 4 °C for 30 min in 50 mM NaH2PO4 pH 8.0; excitation 280 nm, emission 300-400 nm; both purified

SSSPRPLSPLVELN [ArgP14aa synthetic peptide]
binding: binds
